Source: PubChem BioAssay AID504808 (Drosophila RNAi Screening Center, 2011)

Test: 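Fly genes required to hold E2F transcription in check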 (primary screen)
Cells: Drosophila S2 cells
Reagent: long dsRNA against Drosophila genes
Read-out: 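Dual luciferase plate measurements; E2F-specific signal taken as firefly over Renilla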
Scale: E2F firefly: higher = more E2F reporter activity; Renilla normaliser: higher = more normaliser reporter signal
Hit rule: 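a knock-down counted as active when the firefly/Renilla E2F signal rose above 50%, a threshold chosen arbitrarily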
The deposit covers about 21,000 reagents; below is a random part of those with a known target gene and a result. Of all reagents, 18 (0.084%) are marked active. 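Raw counts without plate normalisation, one of two replicates; the ratio scores behind the calls were not deposited.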 A plus sign joins genes that one reagent is predicted to hit. No sequences are given here. Not stated in the record: the amount of reagent, the time to read-out.

gene knocked down | amplicon | E2F firefly, rep 1 | Renilla normaliser, rep 1 | call
CG5946 | DRSC10560 | 1.08e5 | 3601 | inactive
Pect | DRSC02867 | 92924 | 3674 | inactive
Pect | DRSC02868 | 94581 | 4423 | inactive
CG11635 + spaw | DRSC06075 | 1.46e5 | 5564 | inactive
CG6813 | DRSC16122 | 1.56e5 | 6621 | inactive
CG34299 | DRSC13974 | 80807 | 2059 | inactive
swa | DRSC18842 | 8049 | 924 | inactive
CG12637 | DRSC17845 | 1.10e5 | 5113 | inactive
CG7632 | DRSC11842 | 1.19e5 | 7800 | inactive
Sik2 | DRSC18522 | 1.32e5 | 7140 | inactive
Bap111 | DRSC18419 | 64502 | 696 | inactive
kel | DRSC03554 | 1.09e5 | 4580 | inactive
Cpr78Ca | DRSC11651 | 1.33e5 | 6017 | inactive
bnl | DRSC13377 | 81322 | 2469 | inactive
bnl | DRSC16913 | 61761 | 3148 | inactive
Nach | DRSC07478 | 1.38e5 | 5686 | inactive
CG5556 | DRSC00687 | 1.69e5 | 6422 | inactive
CG3199 | DRSC15467 | 97529 | 6512 | inactive
CG9801 | DRSC16568 | 75280 | 3318 | inactive
CG1636 | DRSC18111 | 74883 | 3418 | inactive
Mdh1 (retired record) | DRSC02846 | 1.36e5 | 4930 | inactive
Vajk3 | DRSC01883 | 78218 | 3326 | inactive
Myo95E | DRSC15821 | 80253 | 4002 | inactive
CG8001 | DRSC08611 | 67412 | 2951 | inactive
CG15387 | DRSC00401 | 1.83e5 | 6955 | inactive
CG18273 | DRSC18150 | 70807 | 5548 | inactive
CG18273 | DRSC18505 | 1994 | 948 | inactive
CG5707 | DRSC08573 | 76432 | 3057 | inactive
Dip-C | DRSC15855 | 67348 | 3306 | inactive
Spn43Ab | DRSC06781 | 1.37e5 | 4724 | inactive
CG31437 | DRSC13711 | 79169 | 2283 | inactive
CG5773 | DRSC06955 | 1.49e5 | 4611 | inactive
CG30010 | DRSC05193 | 1.43e5 | 6245 | inactive
NFAT | DRSC18991 | 81329 | 2379 | inactive
NFAT | DRSC19393 | 1.07e5 | 4954 | inactive
CG31036 | DRSC15055 | 1.29e5 | 6817 | inactive
CG31036 | DRSC15057 | 1.33e5 | 6656 | inactive
CG32668 | DRSC18879 | 79553 | 2545 | inactive
CG33640 | DRSC01324 | 1.31e5 | 6308 | inactive
Optix | DRSC05078 | 1.49e5 | 5634 | inactive
Optix | DRSC07484 | 3076 | 200 | inactive
spn-B | DRSC17063 | 1.17e5 | 5569 | inactive
Osi6 | DRSC12128 | 1.22e5 | 7071 | inactive
RluA-2 | DRSC02939 | 79962 | 3005 | inactive
eIF3k | DRSC04056 | 97977 | 4270 | inactive
Gpxl | DRSC06538 | 1.48e5 | 5226 | inactive
Nplp4 | DRSC00391 | 1.77e5 | 5769 | inactive
Ppat-Dpck | DRSC09744 | 74332 | 3460 | inactive
CG4763 | DRSC04009 | 1.25e5 | 4587 | inactive
CG4763 | DRSC04487 | 89197 | 3561 | inactive
CG1894 | DRSC15396 | 1.32e5 | 6456 | inactive
bou | DRSC17924 | 1.20e5 | 5684 | inactive
Ir7d | DRSC18010 | 52352 | 3859 | inactive
Ir75c | DRSC10190 | 1.74e5 | 10237 | inactive
Ugt303B2 | DRSC14198 | 93579 | 5234 | inactive
Obp58d | DRSC04162 | 1.14e5 | 4796 | inactive
CG31007 | DRSC14029 | 82231 | 2659 | inactive
CG6873 | DRSC20014 | 1.23e5 | 6278 | inactive
CG8569 | DRSC07214 | 2751 | 208 | inactive
CG15651 | DRSC04242 | 1.00e5 | 4174 | inactive
CG42523 | DRSC00251 | 1.25e5 | 5012 | inactive
CG9514 | DRSC20190 | 1.45e5 | 6343 | inactive
CG9514 | DRSC20191 | 1.53e5 | 6688 | inactive
CG14309 | DRSC14788 | 1.46e5 | 7506 | inactive
stac | DRSC13693 | 85526 | 2587 | inactive
stac | DRSC14392 | 1.07e5 | 5556 | inactive
CG15484 | DRSC02494 | 1.03e5 | 4438 | inactive
dpr20 | DRSC08265 | 78448 | 3811 | inactive
CG12857 | DRSC06197 | 99013 | 4541 | inactive
Ir87a | DRSC14836 | 1.16e5 | 6209 | inactive
gukh | DRSC14768 | 1.39e5 | 6681 | inactive
gukh | DRSC15806 | 1.47e5 | 7350 | inactive
gukh | DRSC15944 | 68584 | 3184 | inactive
fru | DRSC16951 | 61767 | 5070 | inactive
fru | DRSC16952 | 1.09e5 | 2085 | inactive
fru | DRSC16953 | 1.47e5 | 7301 | inactive
CG11474 | DRSC04112 | 88898 | 4035 | inactive
CG2691 | DRSC19866 | 7040 | 740 | inactive
CG8635 | DRSC07226 | 2848 | 219 | inactive
oaf | DRSC00831 | 1.44e5 | 5352 | inactive
narya | DRSC19439 | 1.52e5 | 5244 | inactive
SMC2 | DRSC07544 | 3038 | 157 | inactive
Trs33 | DRSC15990 | 1.03e5 | 5868 | inactive
l(3)72Dr | DRSC10478 | 1.56e5 | 7956 | inactive
CG15044 | DRSC19620 | 2.40e5 | 6332 | inactive
Dora | DRSC19614 | 1.34e5 | 5488 | inactive
Dora | DRSC19781 | 1.41e5 | 112 | inactive
Dora | DRSC20034 | 1.28e5 | 6198 | inactive
Dora | DRSC20035 | 98544 | 4521 | inactive
CG13841 | DRSC14691 | 80560 | 6140 | inactive
Or98b | DRSC16775 | 1.18e5 | 5770 | inactive
gudu | DRSC02820 | 1.29e5 | 5179 | inactive
Wdr62 | DRSC00081 | 1.34e5 | 5723 | inactive
Wdr62 | DRSC00082 | 1.35e5 | 5482 | inactive
Wdr62 | DRSC00701 | 68610 | 2932 | inactive
Bili | DRSC14405 | 65461 | 3502 | inactive
Ugt35E2 | DRSC16083 | 1.53e5 | 7063 | inactive
CG5346 | DRSC15778 | 1.00e5 | 5188 | inactive
kni | DRSC11891 | 1.41e5 | 6135 | inactive
mAChR-B | DRSC16345 | 1.27e5 | 6964 | inactive
CG31802 | DRSC02459 | 91673 | 4325 | inactive
CG15865 | DRSC19733 | 1.63e5 | 6330 | inactive
CG13375 | DRSC18621 | 1.20e5 | 5849 | inactive
Pop2 | DRSC10537 | 79675 | 4119 | inactive
Polr2E | DRSC06100 | 1.05e5 | 5171 | inactive
Sirt2 | DRSC15714 | 1.21e5 | 6790 | inactive
CG32440 | DRSC11480 | 89448 | 3835 | inactive

Part of the list above in another layout.
| gene knocked down | amplicon | E2F firefly, rep 1 | Renilla normaliser, rep 1 | call |
| --- | --- | --- | --- | --- |
| Nplp4 | DRSC00391 | 1.77e5 | 5769 | inactive |
| Ppat-Dpck | DRSC09744 | 74332 | 3460 | inactive |
| CG4763 | DRSC04009 | 1.25e5 | 4587 | inactive |
| CG4763 | DRSC04487 | 89197 | 3561 | inactive |
| CG1894 | DRSC15396 | 1.32e5 | 6456 | inactive |
